Structures were worked out from names or drawings and are uncertain.
Tests used:
ΔF508 CFTR [1] = target: T1, ΔF508 CFTR (Homo sapiens, UniProt P13569, DEL508-508); assay: Potentiator activity, YFP halide (iodide) quenching assay in FRT cells expressing ΔF508 CFTR, 27° C. pre-incubation; type: cell-based; conditions: read-out: Potentiator EC50, 24 hours at 27° C., compound with forskolin 30 min
ΔF508 CFTR [2] = target: T1, ΔF508 CFTR; assay: Corrector activity, YFP halide (iodide) quenching assay in FRT cells expressing ΔF508 CFTR; type: cell-based; conditions: read-out: Corrector EC50, 24 hours with compound at 37° C., forskolin and genistein

The chains behind the UniProt entries cited, without tags or fusion partners. A line that says so, or that is headed by a name, gives the form on record, which may keep a tag or linker.
UniProt P13569, with tags, fused parts or gaps DEL508-508: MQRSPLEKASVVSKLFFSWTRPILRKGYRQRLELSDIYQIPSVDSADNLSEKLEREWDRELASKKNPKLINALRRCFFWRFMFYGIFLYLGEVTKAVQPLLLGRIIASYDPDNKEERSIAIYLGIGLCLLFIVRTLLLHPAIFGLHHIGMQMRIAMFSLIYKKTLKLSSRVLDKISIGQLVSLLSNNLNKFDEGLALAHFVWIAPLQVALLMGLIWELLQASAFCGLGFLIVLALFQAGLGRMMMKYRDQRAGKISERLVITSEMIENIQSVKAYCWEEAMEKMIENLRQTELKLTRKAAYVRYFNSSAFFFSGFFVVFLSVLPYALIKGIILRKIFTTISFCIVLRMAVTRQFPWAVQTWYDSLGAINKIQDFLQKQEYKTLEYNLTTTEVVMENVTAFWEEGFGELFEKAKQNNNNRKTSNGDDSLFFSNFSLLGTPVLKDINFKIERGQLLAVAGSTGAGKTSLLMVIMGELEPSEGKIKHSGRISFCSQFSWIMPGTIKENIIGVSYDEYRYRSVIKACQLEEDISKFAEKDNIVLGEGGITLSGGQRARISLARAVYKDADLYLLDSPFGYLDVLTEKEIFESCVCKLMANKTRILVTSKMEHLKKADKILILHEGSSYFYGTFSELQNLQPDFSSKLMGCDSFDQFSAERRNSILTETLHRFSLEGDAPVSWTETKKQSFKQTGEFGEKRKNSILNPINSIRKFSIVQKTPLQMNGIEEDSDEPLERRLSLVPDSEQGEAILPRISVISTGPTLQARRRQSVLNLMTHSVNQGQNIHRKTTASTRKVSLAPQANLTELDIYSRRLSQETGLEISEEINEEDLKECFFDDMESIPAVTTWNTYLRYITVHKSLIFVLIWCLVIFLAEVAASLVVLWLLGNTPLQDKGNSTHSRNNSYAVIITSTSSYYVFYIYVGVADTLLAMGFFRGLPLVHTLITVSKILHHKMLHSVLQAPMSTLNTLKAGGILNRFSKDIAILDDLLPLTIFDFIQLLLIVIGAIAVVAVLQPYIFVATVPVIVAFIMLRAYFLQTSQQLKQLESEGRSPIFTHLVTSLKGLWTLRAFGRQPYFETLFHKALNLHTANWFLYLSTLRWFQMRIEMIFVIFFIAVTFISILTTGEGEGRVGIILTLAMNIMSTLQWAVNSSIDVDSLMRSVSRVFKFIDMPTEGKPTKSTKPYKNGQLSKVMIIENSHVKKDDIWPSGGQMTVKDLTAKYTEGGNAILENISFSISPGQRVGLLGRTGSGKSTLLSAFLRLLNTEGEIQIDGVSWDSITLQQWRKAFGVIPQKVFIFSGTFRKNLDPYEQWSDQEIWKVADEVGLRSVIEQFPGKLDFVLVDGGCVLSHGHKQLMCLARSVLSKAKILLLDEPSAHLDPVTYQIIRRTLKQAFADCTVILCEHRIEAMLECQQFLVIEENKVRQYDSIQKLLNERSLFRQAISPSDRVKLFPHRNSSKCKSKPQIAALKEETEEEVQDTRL

Compound: CCn1cc(-c2ccc(Cl)cc2)c2c(NC(C)=O)ncnc21
- EC50 (ΔF508 CFTR [1]): > 15 µM
- EC50 (ΔF508 CFTR [2]): 5 to 10 µM
